Results are given in words; binding and its absence hold for the method and conditions named. Binding seen in cells or lysates may run through a third protein. Some binding calls cover weakened binding; strength is not graded here. For part of these data: Tags and fused reporters may be left off the sequences shown.
Legend:
Experiment in all cases: co-IP; HEK 293 cells co-transfected with EGFR-flag and HA-tagged PATs; PATs immunoprecipitated with HA antibody (protein A/G beads, overnight 4°C, RIPA washes), Western blot with HA and EGFR antibodies
[1] = target: T1, HA-tagged mouse palmitoyl acyltransferase 1 (PAT 1) (mouse) (UniProt Q8R0N9)
T1 sequence: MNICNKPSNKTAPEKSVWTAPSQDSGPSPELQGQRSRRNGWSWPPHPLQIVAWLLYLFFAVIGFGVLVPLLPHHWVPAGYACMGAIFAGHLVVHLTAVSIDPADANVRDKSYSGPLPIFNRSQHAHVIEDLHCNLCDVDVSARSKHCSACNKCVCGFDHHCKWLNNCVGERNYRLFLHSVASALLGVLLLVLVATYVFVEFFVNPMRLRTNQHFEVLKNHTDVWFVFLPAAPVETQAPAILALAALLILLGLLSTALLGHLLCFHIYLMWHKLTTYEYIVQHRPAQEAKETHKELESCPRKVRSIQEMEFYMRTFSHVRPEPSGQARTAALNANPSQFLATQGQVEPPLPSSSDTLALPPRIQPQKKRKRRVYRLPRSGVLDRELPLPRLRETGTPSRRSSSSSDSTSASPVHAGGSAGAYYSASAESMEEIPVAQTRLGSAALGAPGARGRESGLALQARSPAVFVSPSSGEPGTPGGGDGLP

Amino acid sequences for entries named in this document (tags omitted).
UniProt P59267: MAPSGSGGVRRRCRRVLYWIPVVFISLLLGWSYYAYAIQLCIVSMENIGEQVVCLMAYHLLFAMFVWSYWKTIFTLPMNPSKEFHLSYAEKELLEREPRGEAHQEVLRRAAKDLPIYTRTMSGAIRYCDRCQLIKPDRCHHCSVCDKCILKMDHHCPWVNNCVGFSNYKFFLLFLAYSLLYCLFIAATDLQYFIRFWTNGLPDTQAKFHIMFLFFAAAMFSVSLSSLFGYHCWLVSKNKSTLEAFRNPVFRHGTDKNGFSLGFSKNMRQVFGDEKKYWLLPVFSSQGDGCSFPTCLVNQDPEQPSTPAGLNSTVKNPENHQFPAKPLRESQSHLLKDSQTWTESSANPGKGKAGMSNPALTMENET

[2] = target: HA-tagged mouse palmitoyl acyltransferase 2 (PAT 2) (mouse) (UniProt P59267)
[3] = target: T2, HA-tagged mouse palmitoyl acyltransferase 21 (PAT 21) (mouse) (UniProt Q9D270)
T2 sequence: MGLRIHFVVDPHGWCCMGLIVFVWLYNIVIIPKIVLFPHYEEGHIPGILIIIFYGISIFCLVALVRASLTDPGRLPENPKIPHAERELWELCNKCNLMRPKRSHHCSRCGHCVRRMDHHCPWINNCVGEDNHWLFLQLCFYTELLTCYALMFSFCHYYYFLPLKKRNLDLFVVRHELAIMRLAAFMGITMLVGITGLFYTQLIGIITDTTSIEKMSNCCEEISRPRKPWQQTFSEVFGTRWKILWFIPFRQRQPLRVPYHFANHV

- binding [1]: binds
- binding [2]: binds
- binding [3]: binds
Substance: Flag-tagged wild type full length EGFR (from UniProt P00533 25-1210) (receptor)
